Assay results as given in article PMC10423209.

Target: T1, Flag-SLC26A3 (wild type) (human) (UniProt P40879)
T1 sequence: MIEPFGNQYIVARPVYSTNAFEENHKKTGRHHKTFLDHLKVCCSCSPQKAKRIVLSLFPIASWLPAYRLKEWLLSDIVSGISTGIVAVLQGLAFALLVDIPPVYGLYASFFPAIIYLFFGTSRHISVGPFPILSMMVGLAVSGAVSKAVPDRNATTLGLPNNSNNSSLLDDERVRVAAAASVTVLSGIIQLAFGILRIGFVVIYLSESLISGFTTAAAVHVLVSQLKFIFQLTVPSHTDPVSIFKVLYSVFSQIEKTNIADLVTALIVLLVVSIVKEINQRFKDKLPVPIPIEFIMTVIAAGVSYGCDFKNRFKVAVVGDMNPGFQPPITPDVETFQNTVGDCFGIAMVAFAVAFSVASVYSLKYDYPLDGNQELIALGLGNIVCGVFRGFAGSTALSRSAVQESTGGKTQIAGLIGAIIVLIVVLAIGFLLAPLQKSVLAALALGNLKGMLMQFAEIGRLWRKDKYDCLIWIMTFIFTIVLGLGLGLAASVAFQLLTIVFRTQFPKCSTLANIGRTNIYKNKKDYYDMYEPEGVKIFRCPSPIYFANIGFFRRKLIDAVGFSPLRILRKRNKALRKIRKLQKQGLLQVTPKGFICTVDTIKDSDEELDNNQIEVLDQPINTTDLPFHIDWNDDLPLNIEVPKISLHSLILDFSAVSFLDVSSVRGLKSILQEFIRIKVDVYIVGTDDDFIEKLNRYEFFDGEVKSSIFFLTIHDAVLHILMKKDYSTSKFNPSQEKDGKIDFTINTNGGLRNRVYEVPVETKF
Test: co-IP; HEK293T (for the two fragments also HCT116) co-transfected with Flag-SLC26A3 and Myc-NHERF2 constructs for 48 h; Flag-tagged and Myc-tagged anti-beads

binding: no binding
Substance: Myc-NHERF2 C-terminal fragment (human) (domain or fragment)

No constants are given. Whether binding was seen depends on the method and setting. In cells and extracts the contact can be indirect. Tags and fused reporters may be left off the sequences shown.
